According to article doi:10.1101/2023.09.17.558134 (bioRxiv, 2023):
Results are given in words; binding and its absence hold for the method and conditions named. Binding seen in cells or lysates may run through a third protein. These calls come from enrichment with a bait or labelling near it, and not all partners need be listed.

By UniProt entry, the sequences of proteins in these tests, tags left out.
UniProt P0AE60: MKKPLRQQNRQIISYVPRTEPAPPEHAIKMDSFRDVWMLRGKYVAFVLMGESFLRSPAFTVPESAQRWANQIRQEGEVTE

Target: CedA, chromosomally 3×FLAG-tagged (E. coli) (UniProt P0AE60)
Assay: affinity purification with mass spectrometry

binding: binds
B1: stringent starvation protein A (SspA), endogenous (protein, UniProt P0ACA3 1-212)
chain: MAVAANKRSVMTLFSGPTDIYSHQVRIVLAEKGVSFEIEHVEKDNPPQDLIDLNPNQSVPTLVDRELTLWESRIIMEYLDERFPHPPLMPVYPVARGESRLYMHRIEKDWYTLMNTIINGSASEADAARKQLREELLAIAPVFGQKPYFLSDEFSLVDCYLAPLLWRLPQLGIEFSGPGAKELKGYMTRVFERDSFLASLTEAEREMRLGRS
